For one substance, binding results are on record in PMC8076227.

Protein sequences, listed by entry. Tags and fused reporters are not part of them. Lines headed by an entry give the natural chain unless they say otherwise; changes in a name come on top.
UniProt Q06710: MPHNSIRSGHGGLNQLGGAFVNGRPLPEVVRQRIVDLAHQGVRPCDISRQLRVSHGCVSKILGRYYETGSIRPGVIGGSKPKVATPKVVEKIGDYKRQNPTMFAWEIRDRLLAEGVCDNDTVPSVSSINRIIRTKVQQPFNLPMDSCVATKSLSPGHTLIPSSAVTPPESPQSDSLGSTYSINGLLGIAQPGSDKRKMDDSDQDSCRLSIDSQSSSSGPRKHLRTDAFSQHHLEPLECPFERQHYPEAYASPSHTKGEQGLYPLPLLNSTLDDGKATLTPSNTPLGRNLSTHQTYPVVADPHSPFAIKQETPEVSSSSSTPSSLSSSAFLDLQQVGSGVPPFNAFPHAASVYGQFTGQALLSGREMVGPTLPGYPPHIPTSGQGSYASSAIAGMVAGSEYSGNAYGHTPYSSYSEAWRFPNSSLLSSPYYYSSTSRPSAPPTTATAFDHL
UniProt Q03112: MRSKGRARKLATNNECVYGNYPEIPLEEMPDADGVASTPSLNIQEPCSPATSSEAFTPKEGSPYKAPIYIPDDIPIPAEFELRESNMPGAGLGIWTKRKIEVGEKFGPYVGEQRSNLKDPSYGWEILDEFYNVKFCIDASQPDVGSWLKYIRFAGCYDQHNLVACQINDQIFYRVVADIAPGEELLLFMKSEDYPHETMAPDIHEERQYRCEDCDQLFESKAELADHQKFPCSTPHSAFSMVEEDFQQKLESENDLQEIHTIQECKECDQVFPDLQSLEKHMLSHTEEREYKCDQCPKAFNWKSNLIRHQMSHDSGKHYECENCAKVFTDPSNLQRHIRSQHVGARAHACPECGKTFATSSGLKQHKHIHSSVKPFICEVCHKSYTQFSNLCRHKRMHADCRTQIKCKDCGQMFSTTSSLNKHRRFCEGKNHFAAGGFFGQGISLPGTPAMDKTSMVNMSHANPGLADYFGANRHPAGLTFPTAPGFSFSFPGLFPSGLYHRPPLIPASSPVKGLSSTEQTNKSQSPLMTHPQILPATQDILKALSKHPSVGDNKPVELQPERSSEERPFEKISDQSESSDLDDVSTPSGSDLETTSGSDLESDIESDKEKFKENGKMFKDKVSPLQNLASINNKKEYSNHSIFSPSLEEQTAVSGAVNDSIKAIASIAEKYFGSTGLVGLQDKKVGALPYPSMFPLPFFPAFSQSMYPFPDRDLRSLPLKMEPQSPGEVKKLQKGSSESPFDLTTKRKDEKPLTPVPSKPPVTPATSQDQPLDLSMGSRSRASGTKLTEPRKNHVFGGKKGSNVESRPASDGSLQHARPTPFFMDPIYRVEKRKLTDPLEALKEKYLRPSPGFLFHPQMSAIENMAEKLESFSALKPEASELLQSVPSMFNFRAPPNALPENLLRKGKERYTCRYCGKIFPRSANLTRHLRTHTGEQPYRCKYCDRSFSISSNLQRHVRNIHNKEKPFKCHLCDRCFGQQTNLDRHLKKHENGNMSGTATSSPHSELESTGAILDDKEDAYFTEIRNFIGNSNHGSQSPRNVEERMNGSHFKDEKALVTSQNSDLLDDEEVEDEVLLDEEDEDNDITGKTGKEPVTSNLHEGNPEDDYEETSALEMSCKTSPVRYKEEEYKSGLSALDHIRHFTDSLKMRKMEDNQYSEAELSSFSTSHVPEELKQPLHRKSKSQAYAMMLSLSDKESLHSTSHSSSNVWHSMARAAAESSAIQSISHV

Results are given in words; binding and its absence hold for the method and conditions named. Binding seen in cells or lysates may run through a third protein. Binding can be weak; no strength is given.

The target in the assay is PAX8-LgBit with point mutations abolishing DNA-binding capacity (UniProt Q06710). The experiment in a line: split reporter; IVTT-NanoBit: PAX8-LgBit and mutants made in a mammalian in vitro transcription-translation system, mixed with PRDM3-SmBit (Fig. 2B).

As to “PRDM3-SmBit (from UniProt Q03112 1-1230)”, the binding result is recorded as “binds”.
